{
  "sequences": {"note": "Amino acid sequences for entries named in this document (tags omitted). A change or cut given only in a name is not applied to a line headed by its entry.", "UniProt Q9Y248": "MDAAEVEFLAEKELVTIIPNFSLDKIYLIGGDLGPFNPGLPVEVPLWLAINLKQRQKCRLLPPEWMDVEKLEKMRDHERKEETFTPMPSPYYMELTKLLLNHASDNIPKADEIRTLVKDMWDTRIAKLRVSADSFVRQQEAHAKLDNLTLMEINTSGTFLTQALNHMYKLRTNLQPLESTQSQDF", "UniProt Q9UI12, whole entry": "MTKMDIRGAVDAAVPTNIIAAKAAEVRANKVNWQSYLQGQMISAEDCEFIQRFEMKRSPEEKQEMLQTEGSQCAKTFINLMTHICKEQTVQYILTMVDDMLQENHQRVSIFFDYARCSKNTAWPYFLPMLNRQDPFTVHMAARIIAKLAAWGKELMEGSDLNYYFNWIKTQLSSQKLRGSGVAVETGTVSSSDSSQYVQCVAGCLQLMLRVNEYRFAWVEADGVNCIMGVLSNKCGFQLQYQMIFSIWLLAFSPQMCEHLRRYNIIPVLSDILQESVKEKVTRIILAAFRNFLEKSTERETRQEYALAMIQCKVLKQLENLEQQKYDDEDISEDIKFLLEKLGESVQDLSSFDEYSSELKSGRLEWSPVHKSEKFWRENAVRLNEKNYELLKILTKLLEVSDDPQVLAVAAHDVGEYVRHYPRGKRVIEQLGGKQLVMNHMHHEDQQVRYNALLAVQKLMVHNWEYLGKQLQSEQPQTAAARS", "UniProt Q9UKA9": "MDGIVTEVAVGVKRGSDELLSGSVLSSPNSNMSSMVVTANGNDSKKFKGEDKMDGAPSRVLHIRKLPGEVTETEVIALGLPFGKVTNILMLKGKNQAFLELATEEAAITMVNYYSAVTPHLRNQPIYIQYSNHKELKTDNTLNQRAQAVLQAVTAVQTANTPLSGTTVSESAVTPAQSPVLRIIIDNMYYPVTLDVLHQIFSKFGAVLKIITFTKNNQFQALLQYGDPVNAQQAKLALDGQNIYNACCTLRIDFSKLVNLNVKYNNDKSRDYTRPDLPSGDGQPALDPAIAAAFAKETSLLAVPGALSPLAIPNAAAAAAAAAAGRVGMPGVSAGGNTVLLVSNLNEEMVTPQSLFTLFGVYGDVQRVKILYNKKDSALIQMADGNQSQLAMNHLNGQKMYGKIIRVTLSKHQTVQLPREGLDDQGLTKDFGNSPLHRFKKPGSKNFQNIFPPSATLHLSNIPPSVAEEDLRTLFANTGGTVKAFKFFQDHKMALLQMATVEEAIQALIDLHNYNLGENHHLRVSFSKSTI", "UniProt Q9UJY4": "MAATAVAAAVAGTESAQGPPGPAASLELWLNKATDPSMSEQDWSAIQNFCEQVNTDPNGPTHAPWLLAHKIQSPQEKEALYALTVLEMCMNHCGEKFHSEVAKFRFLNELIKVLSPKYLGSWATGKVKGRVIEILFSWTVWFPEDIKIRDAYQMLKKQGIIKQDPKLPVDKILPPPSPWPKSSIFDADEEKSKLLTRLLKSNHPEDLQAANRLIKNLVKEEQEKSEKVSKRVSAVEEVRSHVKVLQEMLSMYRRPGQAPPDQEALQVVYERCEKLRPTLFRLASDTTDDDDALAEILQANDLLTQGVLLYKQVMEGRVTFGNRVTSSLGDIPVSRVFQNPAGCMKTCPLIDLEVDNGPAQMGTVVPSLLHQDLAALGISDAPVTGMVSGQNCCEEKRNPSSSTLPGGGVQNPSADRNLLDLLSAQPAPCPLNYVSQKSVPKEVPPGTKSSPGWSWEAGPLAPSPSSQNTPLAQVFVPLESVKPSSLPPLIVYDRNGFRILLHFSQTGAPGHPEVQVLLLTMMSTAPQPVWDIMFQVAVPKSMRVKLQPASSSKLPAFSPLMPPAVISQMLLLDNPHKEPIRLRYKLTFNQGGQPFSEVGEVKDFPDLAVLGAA", "UniProt Q9UJX6, whole entry": "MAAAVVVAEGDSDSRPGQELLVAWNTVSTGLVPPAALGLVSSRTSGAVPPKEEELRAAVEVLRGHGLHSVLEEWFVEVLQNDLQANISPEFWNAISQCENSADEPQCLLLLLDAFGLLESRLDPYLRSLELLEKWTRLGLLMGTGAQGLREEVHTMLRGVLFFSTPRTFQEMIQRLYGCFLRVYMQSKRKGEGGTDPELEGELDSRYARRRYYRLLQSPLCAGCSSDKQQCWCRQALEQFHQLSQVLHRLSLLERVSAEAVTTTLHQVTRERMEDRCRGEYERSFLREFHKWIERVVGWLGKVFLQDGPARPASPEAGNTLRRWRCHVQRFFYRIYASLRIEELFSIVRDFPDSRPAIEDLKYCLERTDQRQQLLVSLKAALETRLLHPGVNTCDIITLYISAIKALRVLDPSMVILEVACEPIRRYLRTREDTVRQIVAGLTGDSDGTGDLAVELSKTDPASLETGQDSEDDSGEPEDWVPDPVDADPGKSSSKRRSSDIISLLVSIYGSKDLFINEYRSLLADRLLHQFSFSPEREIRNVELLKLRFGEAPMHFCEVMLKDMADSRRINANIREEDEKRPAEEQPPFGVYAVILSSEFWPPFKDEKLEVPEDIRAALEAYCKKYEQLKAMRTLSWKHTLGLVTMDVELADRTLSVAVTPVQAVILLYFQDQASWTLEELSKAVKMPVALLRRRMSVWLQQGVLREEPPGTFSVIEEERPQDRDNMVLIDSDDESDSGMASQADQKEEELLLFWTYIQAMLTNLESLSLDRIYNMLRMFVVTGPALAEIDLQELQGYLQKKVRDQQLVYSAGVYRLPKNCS", "UniProt Q9UIM3": "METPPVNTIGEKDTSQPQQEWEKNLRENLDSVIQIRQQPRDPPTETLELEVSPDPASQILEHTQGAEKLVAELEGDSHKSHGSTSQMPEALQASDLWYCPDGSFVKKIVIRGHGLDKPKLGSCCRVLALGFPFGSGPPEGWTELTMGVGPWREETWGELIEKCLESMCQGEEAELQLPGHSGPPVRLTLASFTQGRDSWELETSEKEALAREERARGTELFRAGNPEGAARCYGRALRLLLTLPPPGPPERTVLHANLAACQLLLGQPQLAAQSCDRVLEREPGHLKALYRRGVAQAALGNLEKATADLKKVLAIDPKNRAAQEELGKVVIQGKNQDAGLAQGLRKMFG"},
  "source": "the supplement of paper PMC12819154",
  "about": "“High-throughput peptide-centric local stability assay extends protein–ligand identification to membrane proteins, tissues and bacteria” (Nature Structural & Molecular Biology, 2025)",
  "compound": "Cc1nc(Nc2ncc(C(=O)Nc3c(C)cccc3Cl)s2)cc(N2CCN(CCO)CC2)n1 [dasatinib]",
  "assay": "log2 fold change of tryptic peptide abundance, ligand vs vehicle (limited proteolysis) (log2 ratio); higher = more trypsin-susceptible (destabilized)",
  "details": "ligand concentration: 5 uM; sample: K562 cleared lysate",
  "note": "The other results are listed elsewhere or left out. Most entries show no effect beyond the scatter of the controls.",
  "data": [
    {"target": "GINS2 (peptide sequence: LLLNHASDNIPKADEIR, peptide start residue: 98) (UniProt Q9Y248)", "values": [
      {"measurement": "log2 fold change", "value": 0.109}
    ]},
    {"target": "ATP6V1H (peptide sequence: LMVHNWEYLGK, peptide start residue: 459) (UniProt Q9UI12)", "values": [
      {"measurement": "log2 fold change", "value": -0.0774}
    ]},
    {"target": "PTBP2 (peptide sequence: DFGNSPLHR, peptide start residue: 430) (UniProt Q9UKA9)", "values": [
      {"measurement": "log2 fold change", "value": 0.131}
    ]},
    {"target": "GGA2 (peptide sequence: YLGSWATGK, peptide start residue: 118) (UniProt Q9UJY4)", "values": [
      {"measurement": "log2 fold change", "value": -0.269}
    ]},
    {"target": "ANAPC2 (peptide sequence: DQQLVYSAGVYRLPK, peptide start residue: 805) (UniProt Q9UJX6)", "values": [
      {"measurement": "log2 fold change", "value": 0.309}
    ]},
    {"target": "FKBPL (peptide sequence: VLEREPGHLK, peptide start residue: 278) (UniProt Q9UIM3)", "values": [
      {"measurement": "log2 fold change", "value": 0.427}
    ]}
  ]
}
